According to paper doi:10.1101/2025.07.21.665923 (bioRxiv, 2025):
No constants are given. Whether binding was seen depends on the method and setting. A result given as binding can be weak or reduced; the word gives no strength.

How the values were obtained:
[1] = molecular target: T1, N-terminally biotinylated URAT1 peptide (human); experiment: SPR
T1 sequence (peptide, biotin on the N-terminus): THGTLGNSVLKSTQF

[2] = molecular target: T2, NaPi-IIa peptide (15 C-terminal residues of NaPi-IIa), TAMRA-labelled (human (identical in mouse)); experiment: fluorescence polarisation
T2 sequence (peptide, tetramethylrhodamine (TAMRA) on the N-terminus): SPRLALPAHHNATRL

[3] = molecular target: T3, URAT1 PBM peptide (KSTQF) (human); experiment: crystal structure
T3 sequence (peptide): KSTQF

[4] = molecular target: T4, URAT1 peptide (15 C-terminal residues of human URAT1), TAMRA-labelled (human); experiment: fluorescence polarisation
T4 sequence (peptide, tetramethylrhodamine (TAMRA) on the N-terminus): THGTLGNSVLKSTQF

## PDZ2 domain of human PDZK1 (3PDZ2), C-terminal His8-tag (domain or fragment)
[1]
  binding: binds
[2]
  binding: binds weakly

## PDZ2 domain of human PDZK1 as in the crystallization construct 3PDZ2^KSTQF (domain or fragment)
[3]
  binding: binds

## PDZ3 domain of human PDZK1 (3PDZ3), C-terminal His8-tag (domain or fragment)
[1]
  binding: binds weakly
[2]
  binding: binds weakly

## PDZ2 domain of human NHERF1 (1PDZ2), C-terminal His8-tag (domain or fragment)
[4]
  binding: binds weakly

## PDZ1 domain of human NHERF1 (1PDZ1), C-terminal His8-tag (domain or fragment)
[4]
  binding: binds weakly

## PDZ4 domain of human PDZK1 (3PDZ4), C-terminal His8-tag (domain or fragment)
[2]
  binding: binds weakly
